Compound in this test: CC1Cc2ccccc2N1C(=O)C1CCCN(C1)C(=O)CCl (mixture of isomers) [TRIM25 ligand 11 (diastereomer mixture)]
Briefly: probe-labelled cysteine peptide fold change vs DMSO (competition) (log2 fold change); higher = less target engagement (more negative = stronger competition). The conditions noted are these: THP-1, incubation time: 4 h.

Chains of the proteins cited; added tags and fusions are not shown. Lines headed by an entry give the natural chain unless they say otherwise; changes in a name come on top.
UniProt P26639: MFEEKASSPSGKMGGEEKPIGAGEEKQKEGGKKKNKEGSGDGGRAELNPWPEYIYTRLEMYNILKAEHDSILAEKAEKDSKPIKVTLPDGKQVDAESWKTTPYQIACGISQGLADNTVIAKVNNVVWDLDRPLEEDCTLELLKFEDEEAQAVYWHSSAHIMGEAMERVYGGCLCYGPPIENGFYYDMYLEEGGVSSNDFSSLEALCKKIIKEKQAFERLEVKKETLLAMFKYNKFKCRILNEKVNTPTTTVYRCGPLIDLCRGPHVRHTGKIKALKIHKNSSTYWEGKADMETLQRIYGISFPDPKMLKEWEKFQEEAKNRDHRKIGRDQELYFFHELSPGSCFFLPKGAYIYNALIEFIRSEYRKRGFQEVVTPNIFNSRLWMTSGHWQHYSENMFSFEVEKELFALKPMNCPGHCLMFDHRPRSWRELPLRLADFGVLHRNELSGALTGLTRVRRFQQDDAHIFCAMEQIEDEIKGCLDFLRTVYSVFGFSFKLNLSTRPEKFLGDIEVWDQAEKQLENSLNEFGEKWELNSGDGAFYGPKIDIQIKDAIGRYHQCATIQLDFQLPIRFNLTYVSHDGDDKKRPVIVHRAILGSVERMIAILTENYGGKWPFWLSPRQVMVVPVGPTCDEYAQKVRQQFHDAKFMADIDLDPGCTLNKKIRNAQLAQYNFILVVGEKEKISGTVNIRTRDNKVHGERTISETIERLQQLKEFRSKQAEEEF
UniProt Q12788: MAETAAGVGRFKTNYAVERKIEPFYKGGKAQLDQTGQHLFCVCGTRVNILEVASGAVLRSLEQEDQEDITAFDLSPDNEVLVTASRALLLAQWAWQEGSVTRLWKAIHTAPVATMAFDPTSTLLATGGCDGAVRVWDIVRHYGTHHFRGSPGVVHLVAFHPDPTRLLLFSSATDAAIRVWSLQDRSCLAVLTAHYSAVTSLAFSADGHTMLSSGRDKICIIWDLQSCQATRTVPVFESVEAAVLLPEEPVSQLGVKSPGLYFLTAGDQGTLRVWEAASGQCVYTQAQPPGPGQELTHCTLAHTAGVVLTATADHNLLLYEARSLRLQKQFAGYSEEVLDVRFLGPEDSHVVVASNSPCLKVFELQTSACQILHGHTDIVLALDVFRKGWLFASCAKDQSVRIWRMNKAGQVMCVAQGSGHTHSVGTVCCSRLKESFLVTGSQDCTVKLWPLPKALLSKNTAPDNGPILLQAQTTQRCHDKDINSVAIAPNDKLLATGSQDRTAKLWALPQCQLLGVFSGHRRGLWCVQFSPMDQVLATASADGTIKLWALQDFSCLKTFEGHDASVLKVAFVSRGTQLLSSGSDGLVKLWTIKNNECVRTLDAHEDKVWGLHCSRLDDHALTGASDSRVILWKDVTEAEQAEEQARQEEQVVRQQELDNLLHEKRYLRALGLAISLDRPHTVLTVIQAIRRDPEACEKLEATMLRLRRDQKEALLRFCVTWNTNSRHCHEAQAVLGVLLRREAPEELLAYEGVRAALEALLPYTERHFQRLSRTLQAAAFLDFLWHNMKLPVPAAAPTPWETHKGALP
UniProt Q15560: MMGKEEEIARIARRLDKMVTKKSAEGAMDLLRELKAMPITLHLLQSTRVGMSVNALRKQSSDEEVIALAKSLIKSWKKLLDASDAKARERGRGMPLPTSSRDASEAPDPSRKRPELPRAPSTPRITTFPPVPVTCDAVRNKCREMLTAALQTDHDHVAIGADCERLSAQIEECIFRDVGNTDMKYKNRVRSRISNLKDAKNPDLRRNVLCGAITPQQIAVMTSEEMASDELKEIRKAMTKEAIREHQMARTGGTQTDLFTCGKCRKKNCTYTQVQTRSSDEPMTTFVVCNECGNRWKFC
UniProt P37837: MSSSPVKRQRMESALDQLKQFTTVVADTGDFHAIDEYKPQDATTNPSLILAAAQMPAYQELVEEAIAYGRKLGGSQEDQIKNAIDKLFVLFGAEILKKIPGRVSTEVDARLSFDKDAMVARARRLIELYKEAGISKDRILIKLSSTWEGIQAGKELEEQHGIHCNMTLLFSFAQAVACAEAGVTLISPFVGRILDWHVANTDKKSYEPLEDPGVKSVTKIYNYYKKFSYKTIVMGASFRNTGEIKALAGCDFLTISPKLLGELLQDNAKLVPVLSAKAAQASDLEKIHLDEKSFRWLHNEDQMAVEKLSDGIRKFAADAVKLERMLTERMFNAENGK
UniProt Q9BTW9: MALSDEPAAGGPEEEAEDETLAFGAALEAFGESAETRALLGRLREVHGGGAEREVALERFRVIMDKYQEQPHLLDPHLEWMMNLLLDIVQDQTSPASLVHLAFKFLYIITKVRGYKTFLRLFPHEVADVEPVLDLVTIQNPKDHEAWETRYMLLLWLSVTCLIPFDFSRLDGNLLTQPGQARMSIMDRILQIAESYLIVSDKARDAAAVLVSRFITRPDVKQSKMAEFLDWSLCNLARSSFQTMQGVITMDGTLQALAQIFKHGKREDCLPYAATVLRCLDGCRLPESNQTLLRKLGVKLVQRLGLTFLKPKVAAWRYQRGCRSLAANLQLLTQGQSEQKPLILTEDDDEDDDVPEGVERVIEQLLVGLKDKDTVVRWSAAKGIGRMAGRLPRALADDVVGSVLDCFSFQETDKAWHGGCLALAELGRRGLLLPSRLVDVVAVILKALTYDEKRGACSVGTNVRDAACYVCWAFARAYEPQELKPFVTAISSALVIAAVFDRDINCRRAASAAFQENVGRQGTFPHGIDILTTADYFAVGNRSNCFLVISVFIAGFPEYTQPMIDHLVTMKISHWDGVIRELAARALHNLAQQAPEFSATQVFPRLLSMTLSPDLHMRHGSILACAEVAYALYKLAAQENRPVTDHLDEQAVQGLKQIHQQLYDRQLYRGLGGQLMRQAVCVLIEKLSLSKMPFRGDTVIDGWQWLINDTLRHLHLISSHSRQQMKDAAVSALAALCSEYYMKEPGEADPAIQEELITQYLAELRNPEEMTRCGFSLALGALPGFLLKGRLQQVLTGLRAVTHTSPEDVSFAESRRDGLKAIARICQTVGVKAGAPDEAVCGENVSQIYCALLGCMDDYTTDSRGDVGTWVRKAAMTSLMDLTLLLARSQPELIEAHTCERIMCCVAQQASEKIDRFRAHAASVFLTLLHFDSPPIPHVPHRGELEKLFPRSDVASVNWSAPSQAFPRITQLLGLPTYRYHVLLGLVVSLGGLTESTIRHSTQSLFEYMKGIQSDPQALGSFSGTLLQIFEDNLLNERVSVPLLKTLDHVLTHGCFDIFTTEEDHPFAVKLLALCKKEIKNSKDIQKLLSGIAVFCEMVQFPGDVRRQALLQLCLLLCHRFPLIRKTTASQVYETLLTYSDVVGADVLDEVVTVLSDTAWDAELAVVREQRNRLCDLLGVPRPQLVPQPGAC
UniProt Q9NVG8: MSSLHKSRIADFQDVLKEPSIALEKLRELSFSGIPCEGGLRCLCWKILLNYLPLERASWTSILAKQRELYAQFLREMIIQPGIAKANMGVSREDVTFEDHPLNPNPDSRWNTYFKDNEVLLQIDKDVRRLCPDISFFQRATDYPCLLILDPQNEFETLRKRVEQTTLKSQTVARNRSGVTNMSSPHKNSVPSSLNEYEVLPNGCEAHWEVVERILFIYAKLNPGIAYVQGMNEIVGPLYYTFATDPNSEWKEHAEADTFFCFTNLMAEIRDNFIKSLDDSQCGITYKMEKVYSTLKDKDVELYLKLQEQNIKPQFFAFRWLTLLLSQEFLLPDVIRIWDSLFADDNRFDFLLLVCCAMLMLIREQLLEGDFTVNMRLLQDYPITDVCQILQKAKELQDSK
UniProt Q9Y4P3: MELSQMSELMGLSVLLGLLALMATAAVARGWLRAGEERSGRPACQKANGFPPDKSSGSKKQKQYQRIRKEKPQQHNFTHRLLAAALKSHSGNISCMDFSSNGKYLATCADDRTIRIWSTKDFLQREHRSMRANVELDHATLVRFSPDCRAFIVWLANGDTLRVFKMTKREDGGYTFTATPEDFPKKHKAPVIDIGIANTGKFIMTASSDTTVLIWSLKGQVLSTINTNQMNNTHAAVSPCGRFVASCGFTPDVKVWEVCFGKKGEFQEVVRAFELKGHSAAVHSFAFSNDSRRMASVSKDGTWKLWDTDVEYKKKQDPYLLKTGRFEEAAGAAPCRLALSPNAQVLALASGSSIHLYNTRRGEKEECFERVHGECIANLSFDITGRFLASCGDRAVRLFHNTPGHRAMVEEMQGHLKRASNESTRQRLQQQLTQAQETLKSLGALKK
UniProt Q9UH65: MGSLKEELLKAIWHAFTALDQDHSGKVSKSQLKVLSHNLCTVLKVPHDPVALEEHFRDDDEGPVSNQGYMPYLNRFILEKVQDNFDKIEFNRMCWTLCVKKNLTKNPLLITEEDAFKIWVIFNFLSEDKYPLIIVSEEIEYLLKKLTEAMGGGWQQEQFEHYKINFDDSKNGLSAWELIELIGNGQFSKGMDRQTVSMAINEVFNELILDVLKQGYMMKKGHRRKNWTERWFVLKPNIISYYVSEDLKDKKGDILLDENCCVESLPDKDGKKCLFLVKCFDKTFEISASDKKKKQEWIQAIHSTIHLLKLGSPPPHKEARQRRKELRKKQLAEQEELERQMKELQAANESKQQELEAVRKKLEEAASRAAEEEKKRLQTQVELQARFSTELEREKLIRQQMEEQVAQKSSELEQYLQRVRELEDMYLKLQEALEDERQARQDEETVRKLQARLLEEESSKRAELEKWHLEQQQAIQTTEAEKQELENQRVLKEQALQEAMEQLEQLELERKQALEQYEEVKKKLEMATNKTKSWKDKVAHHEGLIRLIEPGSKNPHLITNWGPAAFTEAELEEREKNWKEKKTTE
UniProt Q03519, whole entry, looked up: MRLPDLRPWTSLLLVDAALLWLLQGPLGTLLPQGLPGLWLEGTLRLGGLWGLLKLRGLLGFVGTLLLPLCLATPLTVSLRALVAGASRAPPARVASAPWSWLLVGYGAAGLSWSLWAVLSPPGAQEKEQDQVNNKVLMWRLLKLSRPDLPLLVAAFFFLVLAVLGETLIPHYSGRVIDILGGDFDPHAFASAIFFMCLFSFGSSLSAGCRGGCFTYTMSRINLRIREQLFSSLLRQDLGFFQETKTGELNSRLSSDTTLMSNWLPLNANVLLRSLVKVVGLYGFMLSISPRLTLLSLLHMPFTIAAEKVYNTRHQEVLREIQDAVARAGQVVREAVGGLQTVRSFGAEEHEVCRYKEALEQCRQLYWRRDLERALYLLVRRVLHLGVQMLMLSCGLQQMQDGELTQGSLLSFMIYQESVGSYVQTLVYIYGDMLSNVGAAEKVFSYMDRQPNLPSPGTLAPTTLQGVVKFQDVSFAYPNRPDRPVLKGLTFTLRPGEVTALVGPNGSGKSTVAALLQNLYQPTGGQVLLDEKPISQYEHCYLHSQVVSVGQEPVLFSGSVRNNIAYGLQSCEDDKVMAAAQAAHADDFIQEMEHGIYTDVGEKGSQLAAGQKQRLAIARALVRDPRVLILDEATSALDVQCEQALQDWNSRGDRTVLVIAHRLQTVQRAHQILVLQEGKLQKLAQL
UniProt Q15542, whole entry, looked up: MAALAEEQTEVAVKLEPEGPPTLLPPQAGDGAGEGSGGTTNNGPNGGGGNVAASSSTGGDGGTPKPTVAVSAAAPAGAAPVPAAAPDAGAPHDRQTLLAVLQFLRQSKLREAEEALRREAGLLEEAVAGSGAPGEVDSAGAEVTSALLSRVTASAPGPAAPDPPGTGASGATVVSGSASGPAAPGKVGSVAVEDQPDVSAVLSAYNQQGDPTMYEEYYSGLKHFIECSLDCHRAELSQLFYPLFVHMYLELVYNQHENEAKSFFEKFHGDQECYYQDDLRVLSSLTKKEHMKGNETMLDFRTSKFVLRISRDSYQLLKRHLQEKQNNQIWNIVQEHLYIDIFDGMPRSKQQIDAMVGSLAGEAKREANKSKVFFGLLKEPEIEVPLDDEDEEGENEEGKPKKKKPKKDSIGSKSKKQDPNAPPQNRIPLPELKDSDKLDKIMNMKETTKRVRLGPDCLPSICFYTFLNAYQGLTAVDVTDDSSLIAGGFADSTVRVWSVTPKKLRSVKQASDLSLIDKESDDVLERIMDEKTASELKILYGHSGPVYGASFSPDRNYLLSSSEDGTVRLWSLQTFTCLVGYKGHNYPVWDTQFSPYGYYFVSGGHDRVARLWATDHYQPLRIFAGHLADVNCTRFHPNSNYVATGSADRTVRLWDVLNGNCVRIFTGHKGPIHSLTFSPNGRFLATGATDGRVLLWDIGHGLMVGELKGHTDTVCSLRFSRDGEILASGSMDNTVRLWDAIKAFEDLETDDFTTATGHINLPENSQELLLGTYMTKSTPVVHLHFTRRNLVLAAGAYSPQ

The list shows a part of the results.
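Further: competitive chemoproteomic profiling in live THP-1 cells with an iodoacetamide desthiobiotin (IA-DTB) probe, comparing probe-labelled peptide intensities in compound-treated cells against DMSO-treated controls.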

“TARS_P26639_467_FQQDDAHIFCAMEQIEDEIK (UniProt P26639)”: the “probe-labelled cysteine peptide fold change” value was found to be 0.326 (10 µM) and 0.169 (50 µM).

“TBL3_Q12788_555_LWALQDFSCLK (UniProt Q12788)”: the “probe-labelled cysteine peptide fold change” value (10 µM) turned out to be 0.196 and the “probe-labelled cysteine peptide fold change” value (50 µM) was found to be 0.203.

Take “TCEA2_Q15560_163_EMLTAALQTDHDHVAIGADCER (UniProt Q15560)”: the “probe-labelled cysteine peptide fold change” value was -0.154 (10 µM) and -0.0842 (50 µM).

For the target “TALDO1_P37837_250_ALAGCDFLTISPK (UniProt P37837)”, the “probe-labelled cysteine peptide fold change” value is, setting by setting: (10 µM) 0.0137; (50 µM) -0.0255.

Take “TBCD_Q9BTW9_457_RGACSVGTNVR (UniProt Q9BTW9)”: the “probe-labelled cysteine peptide fold change” value was -0.032 (10 µM) and 0.172 (50 µM).

For “TBC1D13_Q9NVG8_145_ATDYPCLLILDPQNEFETLRK (UniProt Q9NVG8)”, the “probe-labelled cysteine peptide fold change” value was -0.167 (10 µM) and -0.109 (50 µM).

For “TBL2_Q9Y4P3_240_GQVLSTINTNQMNNTHAAVSPCGR (UniProt Q9Y4P3)”, the “probe-labelled cysteine peptide fold change” value is 0.0972 (10 µM) and -0.0426 (50 µM).

As to “SWAP70_Q9UH65_94_MCWTLCVK (UniProt Q9UH65)”, the “probe-labelled cysteine peptide fold change” value is, setting by setting: (10 µM) 0.0436; (50 µM) 0.153.

Take “TACC3_Q9Y6A5_426_SGCSEAQPPESPETR (UniProt Q9Y6A5)”: the “probe-labelled cysteine peptide fold change” value runs as follows: (10 µM) -0.0876; (50 µM) -0.101.

Consider “TAP2_Q03519_571_NNIAYGLQSCEDDK (UniProt Q03519)”, for which the “probe-labelled cysteine peptide fold change” value by setting is: (10 µM) 0.0776; (50 µM) 0.0769.

For “TACC3_Q9Y6A5_749_CVEDYLAR (UniProt Q9Y6A5)”, the “probe-labelled cysteine peptide fold change” value reads like this: (10 µM) 0.00804; (50 µM) -0.139.

With “TAF5_Q15542_715_GHTDTVCSLR (UniProt Q15542)”, the “probe-labelled cysteine peptide fold change” value reads like this: (10 µM) 0.0397; (50 µM) 0.0903.

With “TACC3_Q9Y6A5_236_AETPHGAEEECR (UniProt Q9Y6A5)”, the “probe-labelled cysteine peptide fold change” value by setting is: (10 µM) -0.0379; (50 µM) -0.0197.

As for “TACC3_Q9Y6A5_459_LGQPAAEQLHAGPATEEPGPCLSQQLHSASAEDTPVVQLAAETPTAESK (UniProt Q9Y6A5)”, the “probe-labelled cysteine peptide fold change” value reads like this: (10 µM) 0.134; (50 µM) -0.465.

Regarding “TARS_P26639_254+261_CGPLIDLCR (UniProt P26639)”, the “probe-labelled cysteine peptide fold change” value reads like this: (10 µM) -0.109; (50 µM) -0.0779.

As to “TBCD_Q9BTW9_269_REDCLPYAATVLR (UniProt Q9BTW9)”, the “probe-labelled cysteine peptide fold change” value is, setting by setting: (10 µM) 0.0256; (50 µM) 0.0383.
